Measurements as given in the supplement of paper PMC10849652.
The list shows a part of the results.

Chains of the proteins cited; added tags and fusions are not shown. Lines headed by an entry give the natural chain unless they say otherwise; changes in a name come on top.
UniProt Q9H0A0: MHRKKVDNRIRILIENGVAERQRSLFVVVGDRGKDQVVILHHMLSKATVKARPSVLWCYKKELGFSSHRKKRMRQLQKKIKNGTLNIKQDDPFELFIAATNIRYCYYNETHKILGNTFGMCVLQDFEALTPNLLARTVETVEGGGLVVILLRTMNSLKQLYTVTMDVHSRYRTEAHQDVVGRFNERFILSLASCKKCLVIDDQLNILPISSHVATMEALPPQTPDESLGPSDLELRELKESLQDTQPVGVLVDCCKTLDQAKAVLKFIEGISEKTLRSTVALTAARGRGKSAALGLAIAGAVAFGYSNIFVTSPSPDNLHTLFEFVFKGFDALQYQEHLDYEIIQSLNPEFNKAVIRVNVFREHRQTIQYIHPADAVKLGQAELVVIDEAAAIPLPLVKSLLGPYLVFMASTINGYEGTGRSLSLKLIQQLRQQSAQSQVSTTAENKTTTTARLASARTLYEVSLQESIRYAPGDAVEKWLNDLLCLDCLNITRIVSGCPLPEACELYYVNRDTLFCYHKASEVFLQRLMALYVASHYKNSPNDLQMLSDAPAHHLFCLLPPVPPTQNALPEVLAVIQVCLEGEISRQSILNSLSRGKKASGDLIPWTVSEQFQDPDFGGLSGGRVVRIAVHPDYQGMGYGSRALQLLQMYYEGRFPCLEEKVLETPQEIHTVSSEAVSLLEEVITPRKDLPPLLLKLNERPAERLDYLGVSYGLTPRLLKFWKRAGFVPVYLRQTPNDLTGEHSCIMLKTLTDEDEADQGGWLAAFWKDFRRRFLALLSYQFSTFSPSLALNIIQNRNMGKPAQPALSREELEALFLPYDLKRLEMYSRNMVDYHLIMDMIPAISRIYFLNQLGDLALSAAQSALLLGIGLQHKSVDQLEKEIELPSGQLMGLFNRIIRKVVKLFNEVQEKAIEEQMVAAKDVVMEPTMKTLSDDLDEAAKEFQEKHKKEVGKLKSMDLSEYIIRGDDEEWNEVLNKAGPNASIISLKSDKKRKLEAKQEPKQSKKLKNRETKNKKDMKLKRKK
UniProt Q5VZE5: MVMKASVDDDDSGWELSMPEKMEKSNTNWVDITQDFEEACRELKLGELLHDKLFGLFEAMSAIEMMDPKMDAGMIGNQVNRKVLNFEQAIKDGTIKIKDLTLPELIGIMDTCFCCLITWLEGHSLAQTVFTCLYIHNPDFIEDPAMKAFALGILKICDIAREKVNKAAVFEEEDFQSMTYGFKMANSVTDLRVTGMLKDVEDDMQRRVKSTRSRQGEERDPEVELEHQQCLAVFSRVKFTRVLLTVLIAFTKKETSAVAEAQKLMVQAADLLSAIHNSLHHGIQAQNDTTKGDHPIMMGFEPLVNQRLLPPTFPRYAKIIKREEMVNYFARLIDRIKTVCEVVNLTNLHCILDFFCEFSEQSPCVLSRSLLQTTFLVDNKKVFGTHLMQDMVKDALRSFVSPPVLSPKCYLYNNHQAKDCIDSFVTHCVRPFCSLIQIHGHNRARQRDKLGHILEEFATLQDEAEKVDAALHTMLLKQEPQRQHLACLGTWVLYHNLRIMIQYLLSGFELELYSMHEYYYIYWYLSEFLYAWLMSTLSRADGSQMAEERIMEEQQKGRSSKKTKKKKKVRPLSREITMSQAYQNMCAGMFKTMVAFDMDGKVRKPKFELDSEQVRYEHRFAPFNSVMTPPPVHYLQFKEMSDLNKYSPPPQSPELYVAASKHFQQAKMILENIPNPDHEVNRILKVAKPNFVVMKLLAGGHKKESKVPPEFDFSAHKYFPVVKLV
UniProt Q6PIU2: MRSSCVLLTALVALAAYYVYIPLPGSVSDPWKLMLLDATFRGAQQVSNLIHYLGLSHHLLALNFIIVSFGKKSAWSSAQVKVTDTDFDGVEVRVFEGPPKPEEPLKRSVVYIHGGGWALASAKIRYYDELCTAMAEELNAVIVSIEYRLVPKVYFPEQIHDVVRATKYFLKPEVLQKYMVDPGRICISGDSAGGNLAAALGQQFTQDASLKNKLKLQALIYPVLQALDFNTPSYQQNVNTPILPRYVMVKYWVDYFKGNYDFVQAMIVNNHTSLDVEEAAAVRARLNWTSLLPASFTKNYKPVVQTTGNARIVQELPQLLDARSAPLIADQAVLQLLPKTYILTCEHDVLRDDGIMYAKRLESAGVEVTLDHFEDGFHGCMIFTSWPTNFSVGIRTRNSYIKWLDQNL
UniProt P49821, whole entry, looked up: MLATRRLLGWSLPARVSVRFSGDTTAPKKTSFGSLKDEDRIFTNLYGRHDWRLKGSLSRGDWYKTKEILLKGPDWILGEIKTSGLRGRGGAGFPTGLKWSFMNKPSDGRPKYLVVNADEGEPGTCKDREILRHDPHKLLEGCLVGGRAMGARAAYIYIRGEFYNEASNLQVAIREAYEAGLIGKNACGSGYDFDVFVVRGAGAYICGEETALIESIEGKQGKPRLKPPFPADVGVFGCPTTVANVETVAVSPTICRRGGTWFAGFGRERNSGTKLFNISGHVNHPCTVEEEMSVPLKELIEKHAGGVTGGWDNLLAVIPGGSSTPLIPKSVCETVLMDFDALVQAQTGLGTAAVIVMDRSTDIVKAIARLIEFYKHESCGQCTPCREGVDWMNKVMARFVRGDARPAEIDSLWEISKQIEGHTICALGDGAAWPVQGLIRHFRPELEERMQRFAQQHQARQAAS
UniProt P43490: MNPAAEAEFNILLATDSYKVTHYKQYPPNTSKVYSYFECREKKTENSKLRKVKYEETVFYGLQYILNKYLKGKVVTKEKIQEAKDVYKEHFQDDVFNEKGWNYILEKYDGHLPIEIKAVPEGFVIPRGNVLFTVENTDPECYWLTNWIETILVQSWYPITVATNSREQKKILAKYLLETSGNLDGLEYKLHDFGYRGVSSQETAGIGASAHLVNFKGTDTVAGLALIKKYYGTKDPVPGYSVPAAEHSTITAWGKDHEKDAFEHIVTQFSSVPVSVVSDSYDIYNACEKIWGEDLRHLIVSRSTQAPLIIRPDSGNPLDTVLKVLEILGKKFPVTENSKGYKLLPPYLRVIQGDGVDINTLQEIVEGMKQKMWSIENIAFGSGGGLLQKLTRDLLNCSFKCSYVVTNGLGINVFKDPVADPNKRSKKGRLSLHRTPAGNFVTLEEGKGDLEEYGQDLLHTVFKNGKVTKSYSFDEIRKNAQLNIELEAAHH
UniProt P52298: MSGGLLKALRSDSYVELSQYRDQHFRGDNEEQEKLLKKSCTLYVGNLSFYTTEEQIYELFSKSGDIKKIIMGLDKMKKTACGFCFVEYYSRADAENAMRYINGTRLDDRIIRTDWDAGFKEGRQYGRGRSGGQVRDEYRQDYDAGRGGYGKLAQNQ
UniProt Q96HR8: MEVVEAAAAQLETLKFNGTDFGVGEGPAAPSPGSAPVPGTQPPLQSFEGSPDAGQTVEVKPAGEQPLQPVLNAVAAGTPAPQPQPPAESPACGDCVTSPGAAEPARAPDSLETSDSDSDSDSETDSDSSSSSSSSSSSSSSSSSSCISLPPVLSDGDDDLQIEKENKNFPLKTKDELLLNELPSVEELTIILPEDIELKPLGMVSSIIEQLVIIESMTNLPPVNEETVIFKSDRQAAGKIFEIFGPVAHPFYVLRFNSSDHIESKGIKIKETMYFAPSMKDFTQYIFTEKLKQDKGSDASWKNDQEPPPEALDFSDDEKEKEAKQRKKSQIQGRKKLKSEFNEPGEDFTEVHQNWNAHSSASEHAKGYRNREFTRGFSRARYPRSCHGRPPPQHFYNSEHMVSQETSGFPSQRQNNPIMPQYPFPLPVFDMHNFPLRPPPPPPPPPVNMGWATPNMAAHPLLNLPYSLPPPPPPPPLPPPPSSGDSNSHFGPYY
UniProt Q9BTX1: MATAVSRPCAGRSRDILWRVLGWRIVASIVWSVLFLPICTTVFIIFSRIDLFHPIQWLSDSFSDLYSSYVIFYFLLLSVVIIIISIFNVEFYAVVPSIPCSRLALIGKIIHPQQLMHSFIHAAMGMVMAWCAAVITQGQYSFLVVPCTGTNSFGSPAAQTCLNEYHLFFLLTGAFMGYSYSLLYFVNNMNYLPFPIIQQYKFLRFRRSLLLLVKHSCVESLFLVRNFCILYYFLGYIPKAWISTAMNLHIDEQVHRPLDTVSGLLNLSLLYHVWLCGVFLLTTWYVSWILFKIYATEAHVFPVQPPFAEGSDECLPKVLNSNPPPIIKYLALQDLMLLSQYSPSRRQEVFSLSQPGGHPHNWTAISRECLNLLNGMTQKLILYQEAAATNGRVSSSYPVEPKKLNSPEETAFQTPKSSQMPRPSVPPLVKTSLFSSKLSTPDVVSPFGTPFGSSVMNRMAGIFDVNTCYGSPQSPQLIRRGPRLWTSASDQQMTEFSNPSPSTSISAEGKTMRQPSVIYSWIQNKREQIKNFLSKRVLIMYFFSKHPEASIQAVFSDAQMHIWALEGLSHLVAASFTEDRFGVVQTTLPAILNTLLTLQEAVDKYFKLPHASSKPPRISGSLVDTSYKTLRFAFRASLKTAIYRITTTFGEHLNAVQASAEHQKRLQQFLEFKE
UniProt Q8NCW5: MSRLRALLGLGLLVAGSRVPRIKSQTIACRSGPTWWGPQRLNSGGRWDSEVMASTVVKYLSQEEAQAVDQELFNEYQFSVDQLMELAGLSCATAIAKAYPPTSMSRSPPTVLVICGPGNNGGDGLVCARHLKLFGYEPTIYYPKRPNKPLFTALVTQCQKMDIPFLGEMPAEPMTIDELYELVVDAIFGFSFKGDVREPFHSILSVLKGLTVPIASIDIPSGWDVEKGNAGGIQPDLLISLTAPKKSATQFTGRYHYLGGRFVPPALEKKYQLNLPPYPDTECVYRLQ
UniProt O75306, whole entry, looked up: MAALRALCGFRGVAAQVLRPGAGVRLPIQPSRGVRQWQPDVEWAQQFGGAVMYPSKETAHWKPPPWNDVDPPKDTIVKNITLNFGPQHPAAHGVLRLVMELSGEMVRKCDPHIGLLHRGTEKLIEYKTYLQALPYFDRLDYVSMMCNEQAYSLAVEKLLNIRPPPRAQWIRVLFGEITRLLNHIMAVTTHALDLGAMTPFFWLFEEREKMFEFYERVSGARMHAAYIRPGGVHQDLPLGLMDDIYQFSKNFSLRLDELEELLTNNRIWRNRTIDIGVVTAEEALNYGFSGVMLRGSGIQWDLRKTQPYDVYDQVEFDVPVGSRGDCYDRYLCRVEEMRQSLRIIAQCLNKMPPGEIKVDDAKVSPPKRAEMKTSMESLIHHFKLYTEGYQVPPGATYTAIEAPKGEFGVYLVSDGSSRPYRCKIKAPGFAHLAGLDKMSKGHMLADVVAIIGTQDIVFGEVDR
UniProt Q5TEU4: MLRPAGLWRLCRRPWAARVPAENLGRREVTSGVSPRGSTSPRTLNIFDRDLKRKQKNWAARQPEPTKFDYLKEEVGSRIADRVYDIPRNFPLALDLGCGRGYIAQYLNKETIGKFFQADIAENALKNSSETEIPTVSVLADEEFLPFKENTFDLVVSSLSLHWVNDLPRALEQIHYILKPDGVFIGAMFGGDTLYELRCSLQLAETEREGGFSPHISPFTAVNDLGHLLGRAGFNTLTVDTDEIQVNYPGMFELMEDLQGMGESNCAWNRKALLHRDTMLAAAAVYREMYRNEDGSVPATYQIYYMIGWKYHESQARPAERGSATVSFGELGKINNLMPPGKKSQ
UniProt P12036: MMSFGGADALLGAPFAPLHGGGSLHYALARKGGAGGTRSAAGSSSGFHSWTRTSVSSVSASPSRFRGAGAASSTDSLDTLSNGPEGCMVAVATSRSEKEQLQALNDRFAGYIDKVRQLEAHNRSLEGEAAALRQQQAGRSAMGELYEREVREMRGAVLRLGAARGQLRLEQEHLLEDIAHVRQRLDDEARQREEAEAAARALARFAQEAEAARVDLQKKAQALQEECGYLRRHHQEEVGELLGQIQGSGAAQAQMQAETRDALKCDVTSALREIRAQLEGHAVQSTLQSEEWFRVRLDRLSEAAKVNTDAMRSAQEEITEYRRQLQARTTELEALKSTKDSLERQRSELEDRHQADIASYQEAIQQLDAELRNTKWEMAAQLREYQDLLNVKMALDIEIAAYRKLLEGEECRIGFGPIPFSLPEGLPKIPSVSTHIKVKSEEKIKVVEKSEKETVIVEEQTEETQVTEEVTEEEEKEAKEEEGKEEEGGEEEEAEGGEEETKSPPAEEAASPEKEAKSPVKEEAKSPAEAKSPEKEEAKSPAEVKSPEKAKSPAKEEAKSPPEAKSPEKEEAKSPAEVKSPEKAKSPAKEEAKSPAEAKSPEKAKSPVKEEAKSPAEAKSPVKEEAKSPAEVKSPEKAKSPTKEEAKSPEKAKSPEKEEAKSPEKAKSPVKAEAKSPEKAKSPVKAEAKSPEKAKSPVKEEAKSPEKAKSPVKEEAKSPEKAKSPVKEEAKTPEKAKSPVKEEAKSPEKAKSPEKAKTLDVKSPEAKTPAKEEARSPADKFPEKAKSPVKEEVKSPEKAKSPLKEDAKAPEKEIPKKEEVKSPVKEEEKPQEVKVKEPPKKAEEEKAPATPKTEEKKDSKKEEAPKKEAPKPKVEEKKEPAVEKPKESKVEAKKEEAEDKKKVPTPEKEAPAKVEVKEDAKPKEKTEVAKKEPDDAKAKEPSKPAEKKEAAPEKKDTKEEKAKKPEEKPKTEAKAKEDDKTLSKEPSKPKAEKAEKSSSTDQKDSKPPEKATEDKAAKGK

How the values were obtained:
Experiment in all cases: log2 fold change, soluble protein after heating vs DMSO (PISA); higher = thermal stabilisation; K562 cells, 10 uM, 30 min; active = over 0.2 and 3.5 SD of the protein, either way, in both replicates (recomputed)
[1] = compound: CC[C@@H]1C(=O)N(C)c2cnc(Nc3ccc(C(=O)NC4CCN(C)CC4)cc3OC)nc2N1C1CCCC1
How it was run: (§1)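 Aliquots of K562 cells (2×10^6 cells/mL) treated with 10 μM compound for 30 min were heated for 3 min over 48°C-58°C. After pooling and extraction in PBS with 0.5% NP-40 at 4°C, soluble protein from a 21,000xg, 90 min spin was quantified by TMTpro 16plex LC-MS/MS with channel sums equalised. Thermal stability is expressed against control samples, from duplicates, as a log2 fold change.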

volasertib = compound: CC[C@@H]1C(=O)N(C)c2cnc(Nc3ccc(C(=O)N[C@H]4CC[C@H](N5CCN(CC6CC6)CC5)CC4)cc3OC)nc2N1C(C)C [volasertib]
How it was run: as §1

[2] = compound: CC[C@H](C)N1C=C(C2=C(C=C(C=C21)C3=CN=C(C=C3)N4CCNCC4)C(=O)NCC5=C(C=C(NC5=O)C)C)C
How it was run: as §1

epoxomicin = compound: CC[C@H](C)[C@@H](C(=O)N[C@@H]([C@@H](C)O)C(=O)N[C@@H](CC(C)C)C(=O)[C@]1(CO1)C)NC(=O)[C@H]([C@@H](C)CC)N(C)C(=O)C [epoxomicin]
How it was run: as §1

[3] = compound: CCn1c(C(=O)N(C2CC2)C2CC2)cc2c3c(ncn3C)c(Nc3cc(C)n(C)n3)nc21
How it was run: as §1

[4] = compound: CCn1cc(-c2ccnc3[nH]c(-c4cccc(CN(C)C)c4)cc23)c(-c2ccc(NC(=O)N(C)C)cc2)n1
How it was run: as §1

[5] = compound: CN(C)CC(=O)Nc1ccc2[nH]c(=O)c3ccccc3c2c1
How it was run: as §1

rosiglitazone = compound: CN(CCOC1=CC=C(C=C1)C[C@H]2C(=O)NC(=O)S2)C3=CC=CC=N3 (racemic) [rosiglitazone]
How it was run: as §1

[6] = compound: CN1C2=C(C3=C1C(=O)N(N=C3)CC4=CC(=CC=C4)N)SC(=C2)S(=O)C
How it was run: as §1

[7] = compound: CN1CCC(CNc2ccc3ncc(-c4cccc(OC(F)(F)F)c4)n3n2)CC1
How it was run: as §1

saracatinib = compound: CN1CCN(CCOc2cc(OC3CCOCC3)c3c(Nc4c(Cl)ccc5c4OCO5)ncnc3c2)CC1 [saracatinib]
How it was run: as §1

sotrastaurin = compound: CN1CCN(c2nc(C3=C(c4c[nH]c5ccccc45)C(=O)NC3=O)c3ccccc3n2)CC1 [sotrastaurin]
How it was run: as §1

alvocidib = compound: CN1CC[C@H](c2c(O)cc(O)c3c(=O)cc(-c4ccccc4Cl)oc23)[C@H](O)C1 [alvocidib]
How it was run: as §1

Tubastatin A = compound: CN1CCc2c(c3ccccc3n2Cc2ccc(C(=O)NO)cc2)C1 [Tubastatin A]
How it was run: as §1

[8] = compound: CNC(=O)C1=CC=CC=C1NC2=NC(=NC=C2Cl)NC3=C(C=C(C=C3)N4CCOCC4)OC
How it was run: as §1

defactinib = compound: CNC(=O)c1ccc(Nc2ncc(C(F)(F)F)c(NCc3nccnc3N(C)S(C)(=O)=O)n2)cc1 [defactinib]
How it was run: as §1

rucaparib = compound: CNCc1ccc(-c2[nH]c3cc(F)cc4c3c2CCNC4=O)cc1 [rucaparib]
How it was run: as §1

[9] = compound: CNc1nc(-c2ccc3c(N)n[nH]c3c2)cc(N2C[C@@H](C(=O)NC3CCCCC3)CC[C@H]2C)n1
How it was run: as §1

encorafenib = compound: COC(=O)N[C@@H](C)CNc1nccc(-c2cn(C(C)C)nc2-c2cc(Cl)cc(NS(C)(=O)=O)c2F)n1 [encorafenib]
How it was run: as §1

[10] = compound: COC(=O)[C@H](CCSC)NC(=O)C1=C(C=C(C=C1)NC[C@H](CS)N)C2=CC=CC=C2
How it was run: as §1

Measured: log2 fold change

NAT10 (UniProt Q9H0A0)
inactive: [1] 0.113 | volasertib 0.337 | [2] 0.065 | epoxomicin -0.167 | [3] -0.098 | [4] 0.04 | [5] -0.023 | rosiglitazone -0.109 | [6] 0.147 | [7] 0.129 | saracatinib -0.043 | sotrastaurin -0.031 | alvocidib 0.318 | Tubastatin A 0.094 | [8] -0.166 | defactinib 0.382 | rucaparib 0.346 | [9] 0.182 | encorafenib 0.14 | [10] -0.02

NAA35 (UniProt Q5VZE5)
inactive: [1] -0.016 | volasertib -0.008 | [2] 0.012 | epoxomicin 0.006 | [3] -0.007 | [4] -0.104 | [5] 0.019 | rosiglitazone 0.034 | [6] -0.046 | [7] 0.002 | saracatinib 0.029 | sotrastaurin 0.014 | alvocidib -0.083 | Tubastatin A 0.025 | [8] -0.01 | defactinib -0.071 | rucaparib -0.025 | [9] -0.002 | encorafenib 0.042 | [10] 0.013

NCEH1 isoform 2 (UniProt Q6PIU2)
inactive: [1] 0.097 | volasertib 0.045 | [2] -0.028 | epoxomicin -0.045 | [3] 0.039 | [4] 0.042 | [5] 0.031 | rosiglitazone 0.004 | [6] -0.073 | [7] 0.055 | saracatinib 0.063 | sotrastaurin 0.097 | alvocidib -0.013 | Tubastatin A -0.005 | [8] 0.018 | defactinib -0.019 | rucaparib -0.098 | [9] -0.046 | encorafenib -0.004 | [10] 0.007

NDUFC2 (UniProt O95298)
inactive: [1] 0.043 | volasertib 0.033 | [2] -0.045 | epoxomicin 0.142 | [3] 0.047 | [4] 0.011 | [5] -0.003 | rosiglitazone 0.008 | [6] 0.02 | [7] -0.121 | saracatinib 0.046 | sotrastaurin -0.019 | alvocidib 0.038 | Tubastatin A -0.073 | [8] 0.04 | defactinib 0.015 | rucaparib -0.142 | [9] -0.021 | encorafenib 0.054 | [10] -0.001

NDUFV1 (UniProt P49821)
inactive: [1] -0.021 | volasertib -0.013 | [2] 0.017 | epoxomicin 0.042 | [3] -0.027 | [4] -0.023 | [5] 0.017 | rosiglitazone 0.052 | [6] -0.071 | [7] -0.043 | saracatinib -0.006 | sotrastaurin 0.006 | alvocidib -0.056 | Tubastatin A -0.063 | [8] -0.024 | defactinib -0.005 | rucaparib -0.008 | [9] -0.015 | encorafenib -0.024 | [10] 0.009

NAMPT (UniProt P43490)
inactive: [1] 0.029 | volasertib 0.035 | [2] -0.03 | epoxomicin 0.001 | [3] 0.019 | [4] -0.029 | [5] -0.009 | rosiglitazone 0.006 | [6] -0.066 | [7] 0.008 | saracatinib 0.021 | sotrastaurin 0.076 | alvocidib 0.008 | Tubastatin A -0.035 | [8] -0.019 | defactinib 0.003 | rucaparib 0.028 | [9] -0.028 | encorafenib -0.009 | [10] 0.006

NCBP2 (UniProt P52298)
inactive: [1] 0.057 | volasertib 0.004 | [2] 0.039 | epoxomicin -0.001 | [3] 0.012 | [4] -0.011 | [5] 0.004 | rosiglitazone -0.008 | [6] -0.096 | [7] -0.036 | saracatinib -0.015 | sotrastaurin -0.031 | alvocidib -0.013 | Tubastatin A -0.04 | [8] -0.02 | defactinib -0.008 | rucaparib -0.008 | [9] 0.001 | encorafenib -0.005 | [10] -0.019

NAF1 (UniProt Q96HR8)
inactive: [1] 0.054 | volasertib 0.033 | [2] -0.008 | epoxomicin -0.029 | [3] -0.01 | [4] 0.031 | [5] 0.006 | rosiglitazone -0.029 | [6] 0.09 | [7] -0.035 | saracatinib 0.097 | sotrastaurin 0.048 | alvocidib 0.014 | Tubastatin A 0.007 | [8] -0.041 | defactinib 0.014 | rucaparib 0.032 | [9] 0.024 | encorafenib 0.011 | [10] 0.015

NDC1 (UniProt Q9BTX1)
inactive: [1] -0.017 | volasertib -0.142 | [2] 0.028 | epoxomicin 0.025 | [3] -0.038 | [4] -0.054 | [5] 0.004 | rosiglitazone 0.031 | [6] -0.087 | [7] -0.045 | saracatinib 0.015 | sotrastaurin 0.015 | alvocidib -0.049 | Tubastatin A 0.016 | [8] 0.023 | defactinib -0.06 | rucaparib -0.072 | [9] 0 | encorafenib 0.005 | [10] -0.061

NAXE (UniProt Q8NCW5)
inactive: [1] -0.005 | volasertib 0.048 | [2] -0.007 | epoxomicin -0.02 | [3] -0.013 | [4] -0.035 | [5] -0.036 | rosiglitazone 0 | [6] -0.032 | [7] 0.006 | saracatinib 0.012 | sotrastaurin 0.009 | alvocidib -0.007 | Tubastatin A -0.025 | [8] -0.021 | defactinib 0.015 | rucaparib -0.007 | [9] -0.007 | encorafenib -0.028 | [10] -0.018

NDUFS2 (UniProt O75306)
inactive: [1] -0.026 | volasertib -0.064 | [2] 0.011 | epoxomicin 0.037 | [3] 0.02 | [4] -0.05 | [5] 0.024 | rosiglitazone 0.039 | [6] -0.107 | [7] -0.179 | saracatinib 0.002 | sotrastaurin -0.055 | alvocidib -0.09 | Tubastatin A -0.035 | [8] 0 | defactinib -0.003 | rucaparib -0.024 | [9] 0.003 | encorafenib -0.004 | [10] -0.006

NCOR2 (UniProt C9J0Q5)
inactive: [1] -0.059 | volasertib -0.111 | [2] 0.091 | epoxomicin 0.069 | [3] -0.023 | [4] -0.018 | [5] 0.056 | rosiglitazone 0.005 | [6] -0.074 | [7] -0.021 | saracatinib 0.06 | sotrastaurin 0.078 | alvocidib -0.239 | Tubastatin A -0.038 | [8] -0.03 | defactinib -0.106 | rucaparib 0.216 | [9] -0.052 | encorafenib 0.044 | [10] 0.043

NAA10 (UniProt P41227)
inactive: [1] -0.043 | volasertib -0.031 | [2] 0.037 | epoxomicin 0.027 | [3] 0.022 | [4] 0 | [5] 0.007 | rosiglitazone 0.015 | [6] -0.115 | [7] -0.014 | saracatinib 0.041 | sotrastaurin 0.026 | alvocidib -0.068 | Tubastatin A 0.027 | [8] -0.006 | defactinib -0.061 | rucaparib -0.043 | [9] 0.036 | encorafenib 0.004 | [10] -0.013

NDUFAF5 (UniProt Q5TEU4)
inactive: [1] 0.082 | volasertib 0.049 | [2] -0.068 | epoxomicin 0.056 | [3] -0.002 | [4] -0.007 | [5] -0.038 | rosiglitazone -0.171 | [6] -0.091 | [7] -0.069 | saracatinib 0.029 | sotrastaurin -0.012 | alvocidib -0.077 | Tubastatin A -0.053 | [8] -0.001 | defactinib -0.013 | rucaparib -0.04 | [9] -0.046 | encorafenib 0.077 | [10] -0.016

NEFH (UniProt P12036)
inactive: [1] 0.259 | volasertib 0.069 | [2] -0.02 | epoxomicin -0.206 | [3] 0.125 | [4] 0.416 | [5] -0.109 | rosiglitazone -0.13 | [6] 0.332 | [7] 0.098 | saracatinib -0.11 | sotrastaurin -0.209 | alvocidib 0.105 | Tubastatin A -0.027 | [8] 0 | defactinib 0.113 | rucaparib 0.031 | [9] -0.094 | encorafenib 0.189 | [10] 0.033

Quoted at random: 2 records from the list.
NDUFV1 (UniProt P49821)
inactive: [1] -0.021 | volasertib -0.013 | [2] 0.017 | epoxomicin 0.042 | [3] -0.027 | [4] -0.023 | [5] 0.017 | rosiglitazone 0.052 | [6] -0.071 | [7] -0.043 | saracatinib -0.006 | sotrastaurin 0.006 | alvocidib -0.056 | Tubastatin A -0.063 | [8] -0.024 | defactinib -0.005 | rucaparib -0.008 | [9] -0.015 | encorafenib -0.024 | [10] 0.009

NCOR2 (UniProt C9J0Q5)
inactive: [1] -0.059 | volasertib -0.111 | [2] 0.091 | epoxomicin 0.069 | [3] -0.023 | [4] -0.018 | [5] 0.056 | rosiglitazone 0.005 | [6] -0.074 | [7] -0.021 | saracatinib 0.06 | sotrastaurin 0.078 | alvocidib -0.239 | Tubastatin A -0.038 | [8] -0.03 | defactinib -0.106 | rucaparib 0.216 | [9] -0.052 | encorafenib 0.044 | [10] 0.043
